Assay results reported in PMC9299836 (eLife, 2022).
The source gives many values for each of these; only a part stands here.

Chains of the proteins cited; added tags and fusions are not shown. Residues count along the entry.
UniProt Q14BI2, 19-872 A548F: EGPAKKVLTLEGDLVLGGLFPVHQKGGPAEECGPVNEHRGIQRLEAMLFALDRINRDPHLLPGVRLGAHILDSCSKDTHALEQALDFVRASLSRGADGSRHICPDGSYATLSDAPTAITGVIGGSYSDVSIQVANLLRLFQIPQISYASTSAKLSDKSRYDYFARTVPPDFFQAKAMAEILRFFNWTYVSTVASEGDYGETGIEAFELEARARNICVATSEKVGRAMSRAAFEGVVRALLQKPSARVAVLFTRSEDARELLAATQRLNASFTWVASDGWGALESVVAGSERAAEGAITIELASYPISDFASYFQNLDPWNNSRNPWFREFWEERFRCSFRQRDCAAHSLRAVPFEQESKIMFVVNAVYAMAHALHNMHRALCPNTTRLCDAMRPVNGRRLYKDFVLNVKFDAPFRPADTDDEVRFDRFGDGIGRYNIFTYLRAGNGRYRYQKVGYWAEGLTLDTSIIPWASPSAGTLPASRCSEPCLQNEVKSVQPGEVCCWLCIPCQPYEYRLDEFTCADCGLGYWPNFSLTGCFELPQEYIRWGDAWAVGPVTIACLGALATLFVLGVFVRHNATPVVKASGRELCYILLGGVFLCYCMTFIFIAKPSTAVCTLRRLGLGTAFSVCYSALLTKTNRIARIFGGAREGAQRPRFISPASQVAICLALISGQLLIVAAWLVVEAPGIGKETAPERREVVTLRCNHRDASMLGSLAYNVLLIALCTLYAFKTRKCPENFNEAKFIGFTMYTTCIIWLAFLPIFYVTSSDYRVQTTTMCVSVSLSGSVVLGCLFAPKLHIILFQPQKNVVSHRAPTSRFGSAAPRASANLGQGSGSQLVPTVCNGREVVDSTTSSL

Molecular target: mGluR2 (Mus musculus, UniProt Q14BI2, A548F)
Test: smFRET of azi-CRD: cross-correlation of donor and acceptor intensities (CRD dynamics) and HMM transition density plots;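 further: single detergent-solubilized receptors captured on antibody-coated flow cells via C-terminal FLAG-tag, imaged by smFRET, donor and acceptor intensity traces from three independent biological replicates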

## MNI-137
15μM Glutamate + 5μM MNI-137, Time 2.4 s
  Cross Correlation, Mean: -0.01317
15μM Glutamate + 5μM MNI-137, Time 2.45 s
  Cross Correlation, Mean: -0.00987
15μM Glutamate + 5μM MNI-137, Time 2.5 s
  Cross Correlation, Mean: -0.00544
15μM Glutamate + 5μM MNI-137, Time 2.55 s
  Cross Correlation, Mean: -0.00743
15μM Glutamate + 5μM MNI-137, Time 2.6 s
  Cross Correlation, Mean: -0.0157
15μM Glutamate + 5μM MNI-137, Time 2.65 s
  Cross Correlation, Mean: -0.00683
15μM Glutamate + 5μM MNI-137, Time 2.7 s
  Cross Correlation, Mean: -0.00769
15μM Glutamate + 5μM MNI-137, Time 2.75 s
  Cross Correlation, Mean: -0.00781
15μM Glutamate + 5μM MNI-137, Time 2.8 s
  Cross Correlation, Mean: -0.00893
15μM Glutamate + 5μM MNI-137, Time 2.85 s
  Cross Correlation, Mean: -0.00721
15μM Glutamate + 5μM MNI-137, Time 2.9 s
  Cross Correlation, Mean: -0.00734
15μM Glutamate + 5μM MNI-137, Time 2.95 s
  Cross Correlation, Mean: -0.00772
1000μM Glutamate + 5μM MNI-137, Time 0 s
  Cross Correlation, Mean: -0.4674
1000μM Glutamate + 5μM MNI-137, Time 0.05 s
  Cross Correlation, Mean: -0.3312
1000μM Glutamate + 5μM MNI-137, Time 0.1 s
  Cross Correlation, Mean: -0.2718
1000μM Glutamate + 5μM MNI-137, Time 0.15 s
  Cross Correlation, Mean: -0.2373
1000μM Glutamate + 5μM MNI-137, Time 2 s
  Cross Correlation, Mean: -0.02857
1000μM Glutamate + 5μM MNI-137, Time 2.05 s
  Cross Correlation, Mean: -0.02736
1000μM Glutamate + 5μM MNI-137, Time 2.1 s
  Cross Correlation, Mean: -0.02787
1000μM Glutamate + 5μM MNI-137, Time 2.15 s
  Cross Correlation, Mean: -0.02259
1000μM Glutamate + 5μM MNI-137, Time 2.2 s
  Cross Correlation, Mean: -0.01832
1000μM Glutamate + 5μM MNI-137, Time 2.25 s
  Cross Correlation, Mean: -0.01961
1000μM Glutamate + 5μM MNI-137, Time 2.3 s
  Cross Correlation, Mean: -0.02074
1000μM Glutamate + 5μM MNI-137, Time 2.35 s
  Cross Correlation, Mean: -0.0172
1000μM Glutamate + 5μM MNI-137, Time 2.4 s
  Cross Correlation, Mean: -0.0214
1000μM Glutamate + 5μM MNI-137, Time 2.45 s
  Cross Correlation, Mean: -0.01763
1000μM Glutamate + 5μM MNI-137, Time 2.5 s
  Cross Correlation, Mean: -0.0144
1000μM Glutamate + 5μM MNI-137, Time 2.55 s
  Cross Correlation, Mean: -0.01537
1000μM Glutamate + 5μM MNI-137, Time 2.6 s
  Cross Correlation, Mean: -0.01422
1000μM Glutamate + 5μM MNI-137, Time 2.65 s
  Cross Correlation, Mean: -0.01258
1000μM Glutamate + 5μM MNI-137, Time 2.7 s
  Cross Correlation, Mean: -0.0096
1000μM Glutamate + 5μM MNI-137, Time 2.75 s
  Cross Correlation, Mean: -0.00827
1000μM Glutamate + 5μM MNI-137, Time 2.8 s
  Cross Correlation, Mean: -0.00658
1000μM Glutamate + 5μM MNI-137, Time 2.85 s
  Cross Correlation, Mean: -0.00289
1000μM Glutamate + 5μM MNI-137, Time 2.9 s
  Cross Correlation, Mean: -0.00244
1000μM Glutamate + 5μM MNI-137, Time 2.95 s
  Cross Correlation, Mean: -0.0049
Time 0 s, 1000μM Glutamate + 5μM MNI-137, N=3
  Cross Correlation, Mean: -0.4674
Time 0.05 s, 1000μM Glutamate + 5μM MNI-137, N=3
  Cross Correlation, Mean: -0.3312
Time 0.1 s, 1000μM Glutamate + 5μM MNI-137, N=3
  Cross Correlation, Mean: -0.2718
Time 0.15 s, 1000μM Glutamate + 5μM MNI-137, N=3
  Cross Correlation, Mean: -0.2373
Time 0.2 s, 1000μM Glutamate + 5μM MNI-137, N=3
  Cross Correlation, Mean: -0.2112
Time 0.25 s, 1000μM Glutamate + 5μM MNI-137, N=3
  Cross Correlation, Mean: -0.1919
Time 0.3 s, 1000μM Glutamate + 5μM MNI-137, N=3
  Cross Correlation, Mean: -0.1758
Time 0.35 s, 1000μM Glutamate + 5μM MNI-137, N=3
  Cross Correlation, Mean: -0.1629
Time 0.4 s, 1000μM Glutamate + 5μM MNI-137, N=3
  Cross Correlation, Mean: -0.1514
Time 0.45 s, 1000μM Glutamate + 5μM MNI-137, N=3
  Cross Correlation, Mean: -0.1426
Time 0.5 s, 1000μM Glutamate + 5μM MNI-137, N=3
  Cross Correlation, Mean: -0.1307
Time 0.55 s, 1000μM Glutamate + 5μM MNI-137, N=3
  Cross Correlation, Mean: -0.1241
Time 0.6 s, 1000μM Glutamate + 5μM MNI-137, N=3
  Cross Correlation, Mean: -0.1177
Time 0.65 s, 1000μM Glutamate + 5μM MNI-137, N=3
  Cross Correlation, Mean: -0.1093
Time 0.7 s, 1000μM Glutamate + 5μM MNI-137, N=3
  Cross Correlation, Mean: -0.1013
Time 0.75 s, 1000μM Glutamate + 5μM MNI-137, N=3
  Cross Correlation, Mean: -0.09952
Time 0.8 s, 1000μM Glutamate + 5μM MNI-137, N=3
  Cross Correlation, Mean: -0.09295
Time 0.85 s, 1000μM Glutamate + 5μM MNI-137, N=3
  Cross Correlation, Mean: -0.08726
Time 0.9 s, 1000μM Glutamate + 5μM MNI-137, N=3
  Cross Correlation, Mean: -0.08538
Time 0.95 s, 1000μM Glutamate + 5μM MNI-137, N=3
  Cross Correlation, Mean: -0.07938
Time 1 s, 1000μM Glutamate + 5μM MNI-137, N=3
  Cross Correlation, Mean: -0.07503
Time 1.05 s, 1000μM Glutamate + 5μM MNI-137, N=3
  Cross Correlation, Mean: -0.07213
Time 1.1 s, 1000μM Glutamate + 5μM MNI-137, N=3
  Cross Correlation, Mean: -0.06374
Time 1.15 s, 1000μM Glutamate + 5μM MNI-137, N=3
  Cross Correlation, Mean: -0.06369
Time 1.2 s, 1000μM Glutamate + 5μM MNI-137, N=3
  Cross Correlation, Mean: -0.0627
Time 1.3 s, 1000μM Glutamate + 5μM MNI-137, N=3
  Cross Correlation, Mean: -0.05443
Time 1.35 s, 1000μM Glutamate + 5μM MNI-137, N=3
  Cross Correlation, Mean: -0.05075
Time 1.4 s, 1000μM Glutamate + 5μM MNI-137, N=3
  Cross Correlation, Mean: -0.05008
Time 1.45 s, 1000μM Glutamate + 5μM MNI-137, N=3
  Cross Correlation, Mean: -0.0474
Time 1.5 s, 1000μM Glutamate + 5μM MNI-137, N=3
  Cross Correlation, Mean: -0.04472
Time 1.55 s, 1000μM Glutamate + 5μM MNI-137, N=3
  Cross Correlation, Mean: -0.04463
Time 1.65 s, 1000μM Glutamate + 5μM MNI-137, N=3
  Cross Correlation, Mean: -0.03966
Time 1.7 s, 1000μM Glutamate + 5μM MNI-137, N=3
  Cross Correlation, Mean: -0.03894
Time 1.75 s, 1000μM Glutamate + 5μM MNI-137, N=3
  Cross Correlation, Mean: -0.03942
Time 1.8 s, 1000μM Glutamate + 5μM MNI-137, N=3
  Cross Correlation, Mean: -0.03907
Time 1.9 s, 1000μM Glutamate + 5μM MNI-137, N=3
  Cross Correlation, Mean: -0.0321
Time 1.95 s, 1000μM Glutamate + 5μM MNI-137, N=3
  Cross Correlation, Mean: -0.034
Time 2 s, 1000μM Glutamate + 5μM MNI-137, N=3
  Cross Correlation, Mean: -0.02857
Time 2.05 s, 1000μM Glutamate + 5μM MNI-137, N=3
  Cross Correlation, Mean: -0.02736
Time 2.1 s, 1000μM Glutamate + 5μM MNI-137, N=3
  Cross Correlation, Mean: -0.02787
Time 2.15 s, 1000μM Glutamate + 5μM MNI-137, N=3
  Cross Correlation, Mean: -0.02259
Time 2.2 s, 1000μM Glutamate + 5μM MNI-137, N=3
  Cross Correlation, Mean: -0.01832
Time 2.25 s, 1000μM Glutamate + 5μM MNI-137, N=3
  Cross Correlation, Mean: -0.01961
Time 2.3 s, 1000μM Glutamate + 5μM MNI-137, N=3
  Cross Correlation, Mean: -0.02074
Time 2.35 s, 1000μM Glutamate + 5μM MNI-137, N=3
  Cross Correlation, Mean: -0.0172
Time 2.4 s, 1000μM Glutamate + 5μM MNI-137, N=3
  Cross Correlation, Mean: -0.0214
Time 2.45 s, 1000μM Glutamate + 5μM MNI-137, N=3
  Cross Correlation, Mean: -0.01763
Time 2.5 s, 1000μM Glutamate + 5μM MNI-137, N=3
  Cross Correlation, Mean: -0.0144
Time 2.55 s, 1000μM Glutamate + 5μM MNI-137, N=3
  Cross Correlation, Mean: -0.01537
Time 2.6 s, 1000μM Glutamate + 5μM MNI-137, N=3
  Cross Correlation, Mean: -0.01422
Time 2.65 s, 1000μM Glutamate + 5μM MNI-137, N=3
  Cross Correlation, Mean: -0.01258
Time 2.7 s, 1000μM Glutamate + 5μM MNI-137, N=3
  Cross Correlation, Mean: -0.0096
Time 2.75 s, 1000μM Glutamate + 5μM MNI-137, N=3
  Cross Correlation, Mean: -0.00827
Time 2.8 s, 1000μM Glutamate + 5μM MNI-137, N=3
  Cross Correlation, Mean: -0.00658
Time 2.85 s, 1000μM Glutamate + 5μM MNI-137, N=3
  Cross Correlation, Mean: -0.00289
Time 2.9 s, 1000μM Glutamate + 5μM MNI-137, N=3
  Cross Correlation, Mean: -0.00244
Time 2.95 s, 1000μM Glutamate + 5μM MNI-137, N=3
  Cross Correlation, Mean: -0.0049
